PubChem BioAssay AID1224829 | NIAID | 2016
Shown is a random part of about 3,800 reagents tested. 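Calls cover raised and lowered translocation; gene median uses one vendor's three siRNAs; qiagen siRNAs acted more weakly than ambion siRNAs.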 Reagents against one gene are numbered here.

Aim: 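Secondary check of hits that alter LPS-induced p65 translocation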 (follow-up of hits)
Cells: mouse RAW264.7 G9 macrophage reporter cells
Reagent: single siRNA against mouse genes, 100 nM
Time to read-out: 2 days of siRNA knock-down, then 40 min of LPS before fixing
Treatment: LPS (Salmonella minnesota R595) at 10 ng/ml
Detection: 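Imaging of GFP-p65 after 40 min of LPS; nuclear over perinuclear ring intensity ratio, scaled to plate median and non-targeting control wells, given as z-score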
Direction: p65 translocation z-score and gene median z-score, per vendor: higher = more nuclear NF-kappaB p65 after LPS
Rule for the call: 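Active means the replicate-mean z-score lies beyond plus or minus 2, in either direction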
Calls: active = changed p65 translocation (either direction); inactive = no clear change

no.	Gene	reagent no.	siRNA vendor or control pool	p65 translocation z-score, replicate mean	p65 translocation z-score, replicate 1	p65 translocation z-score, replicate 2	gene median z-score, per vendor	Outcome
1	Onecut2 (one cut domain, family member 2)	1	ambion single siRNA	-0.248	-0.922	0.425	-0.922	inactive
2	Onecut2 (one cut domain, family member 2)	2	ambion single siRNA	-2.89	-2.51	-3.28	-0.922	active
3	Onecut2 (one cut domain, family member 2)	3	ambion single siRNA	-0.534	-0.534		-0.922	inactive
4	Onecut2 (one cut domain, family member 2)	4	qiagen single siRNA	0.875	-1.47	3.22	1.12	inactive
5	Onecut2 (one cut domain, family member 2)	5	qiagen single siRNA	2.07	1.12	3.03	1.12	active
6	Onecut2 (one cut domain, family member 2)	6	qiagen single siRNA	-0.487	-0.487		1.12	inactive
7	Cacna2d1 (calcium channel, voltage-dependent, alpha2/delta subunit 1)	1	ambion single siRNA	-1.13	-2.08	-0.188	-0.188	inactive
8	Cacna2d1 (calcium channel, voltage-dependent, alpha2/delta subunit 1)	2	ambion single siRNA	1.47	0.637	2.31	-0.188	inactive
9	Cacna2d1 (calcium channel, voltage-dependent, alpha2/delta subunit 1)	3	ambion single siRNA	-1.1	-1.1		-0.188	inactive
10	Cacna2d1 (calcium channel, voltage-dependent, alpha2/delta subunit 1)	4	qiagen single siRNA	2.88	2.57	3.2	1.48	active
11	Cacna2d1 (calcium channel, voltage-dependent, alpha2/delta subunit 1)	5	qiagen single siRNA	0.785	0.0854	1.48	1.48	inactive
12	Cacna2d1 (calcium channel, voltage-dependent, alpha2/delta subunit 1)	6	qiagen single siRNA	0.983	1.47	0.499	1.48	inactive
13	Cyp4a10 (cytochrome P450, family 4, subfamily a, polypeptide 10)	1	ambion single siRNA	0.0661	-1.22	1.35	-1.62	inactive
14	Cyp4a10 (cytochrome P450, family 4, subfamily a, polypeptide 10)	2	ambion single siRNA	-2.01	-2.01		-1.62	active
15	Cyp4a10 (cytochrome P450, family 4, subfamily a, polypeptide 10)	3	ambion single siRNA	-3.69	-3.69		-1.62	active
16	Cyp4a10 (cytochrome P450, family 4, subfamily a, polypeptide 10)	4	qiagen single siRNA	1.26	1.11	1.42	1.42	inactive
17	Cyp4a10 (cytochrome P450, family 4, subfamily a, polypeptide 10)	5	qiagen single siRNA	3.28	3.62	2.93	1.42	active
18	Cyp4a10 (cytochrome P450, family 4, subfamily a, polypeptide 10)	6	qiagen single siRNA	-5.45	-5.45		1.42	active
19	Rps3 (ribosomal protein S3)	1	ambion single siRNA	0.202	0.955	-0.551	-2.18	inactive
20	Rps3 (ribosomal protein S3)	2	ambion single siRNA	-2.53	-1.91	-3.14	-2.18	active
21	Rps3 (ribosomal protein S3)	3	ambion single siRNA	-2.73	-2.44	-3.01	-2.18	active
22	Rps3 (ribosomal protein S3)	4	qiagen single siRNA	0.67	1.26	0.0832	0.567	inactive
23	Rps3 (ribosomal protein S3)	5	qiagen single siRNA	1.93	1.05	2.81	0.567	inactive
24	Rps3 (ribosomal protein S3)	6	qiagen single siRNA	-0.982	-1.07	-0.897	0.567	inactive

Taken from above:
Under “gene median z-score, per vendor”, Onecut2 (one cut domain, family member 2) #4, siRNA vendor or control pool qiagen single siRNA is entered as 1.12
Value for Rps3 (ribosomal protein S3) #4, siRNA vendor or control pool qiagen single siRNA under “p65 translocation z-score, replicate 2”: 0.0832
Cacna2d1 (calcium channel, voltage-dependent, alpha2/delta subunit 1) #4, siRNA vendor or control pool qiagen single siRNA, p65 translocation z-score, replicate 1: 2.57
Rps3 (ribosomal protein S3) #1, siRNA vendor or control pool ambion single siRNA, gene median z-score, per vendor → -2.18
For “gene median z-score, per vendor”, Onecut2 (one cut domain, family member 2) #6, siRNA vendor or control pool qiagen single siRNA shows 1.12
Value of Cacna2d1 (calcium channel, voltage-dependent, alpha2/delta subunit 1) #3, siRNA vendor or control pool ambion single siRNA under “p65 translocation z-score, replicate mean”: -1.1

The list goes on:
no.	Gene	reagent no.	siRNA vendor or control pool	p65 translocation z-score, replicate mean	p65 translocation z-score, replicate 1	p65 translocation z-score, replicate 2	gene median z-score, per vendor	Outcome
25	Or5d43 (olfactory receptor family 5 subfamily D member 43)	1	ambion single siRNA	-3.74	-4.94	-2.53	-3.7	active
26	Or5d43 (olfactory receptor family 5 subfamily D member 43)	2	ambion single siRNA	-5.38	-6.53	-4.23	-3.7	active
27	Or5d43 (olfactory receptor family 5 subfamily D member 43)	3	ambion single siRNA	-2.29	-3.16	-1.43	-3.7	active
28	Or5d43 (olfactory receptor family 5 subfamily D member 43)	4	qiagen single siRNA	1.53	2.14	0.923	1.74	inactive
29	Or5d43 (olfactory receptor family 5 subfamily D member 43)	5	qiagen single siRNA	2.81	2.26	3.35	1.74	active
30	Or5d43 (olfactory receptor family 5 subfamily D member 43)	6	qiagen single siRNA	0.923	0.502	1.34	1.74	inactive
31	Bach1	1	ambion single siRNA	2.88	3.44	2.32	-0.372	active
32	Bach1	2	ambion single siRNA	-0.372	-0.881	0.137	-0.372	inactive
33	Bach1	3	ambion single siRNA	-1.66	-1.63	-1.69	-0.372	inactive
34	Bach1	4	qiagen single siRNA	3.19	3.43	2.95	2.38	active
35	Bach1	5	qiagen single siRNA	1.63	0.873	2.38	2.38	inactive
36	Bach1	6	qiagen single siRNA	-4.57	-4.57		2.38	active
37	Ncor2 (nuclear receptor co-repressor 2)	1	ambion single siRNA	-3.17	-3.98	-2.37	-2.37	active
38	Ncor2 (nuclear receptor co-repressor 2)	2	ambion single siRNA	-1.24	-1.19	-1.29	-2.37	inactive
39	Ncor2 (nuclear receptor co-repressor 2)	3	ambion single siRNA	-5.14	-5.14		-2.37	active
40	Ncor2 (nuclear receptor co-repressor 2)	4	qiagen single siRNA	-1.86	-1.51	-2.2	-1.86	inactive
41	Ncor2 (nuclear receptor co-repressor 2)	5	qiagen single siRNA	-2.49	-1.51	-3.47	-1.86	active
42	Ncor2 (nuclear receptor co-repressor 2)	6	qiagen single siRNA	-1.77	-0.172	-3.38	-1.86	inactive
43	Hspa12a (heat shock protein family A (Hsp70) member 12A)	1	ambion single siRNA	-1.58	-2.84	-0.321	-2.13	inactive
44	Hspa12a (heat shock protein family A (Hsp70) member 12A)	2	ambion single siRNA	-1.51	-1.44	-1.58	-2.13	inactive
45	Hspa12a (heat shock protein family A (Hsp70) member 12A)	3	ambion single siRNA	-5.25	-7.82	-2.67	-2.13	active
46	Hspa12a (heat shock protein family A (Hsp70) member 12A)	4	qiagen single siRNA	-0.396	-0.126	-0.666	-0.126	inactive
47	Hspa12a (heat shock protein family A (Hsp70) member 12A)	5	qiagen single siRNA	3.12	1.7	4.54	-0.126	active
48	Hspa12a (heat shock protein family A (Hsp70) member 12A)	6	qiagen single siRNA	-5.09	-5.09		-0.126	active
49	Trmt9b (tRNA methyltransferase 9B)	1	ambion single siRNA	0.164	0.781	-0.453	-0.0508	inactive
50	Trmt9b (tRNA methyltransferase 9B)	2	ambion single siRNA	0.0214	-0.092	0.135	-0.0508	inactive
51	Trmt9b (tRNA methyltransferase 9B)	3	ambion single siRNA	-0.848	-1.69	-0.00957	-0.0508	inactive
52	Trmt9b (tRNA methyltransferase 9B)	4	qiagen single siRNA	-1.32	-2.43	-0.215	-1.6	inactive
53	Trmt9b (tRNA methyltransferase 9B)	5	qiagen single siRNA	-2.79	-2.79		-1.6	active
54	Trmt9b (tRNA methyltransferase 9B)	6	qiagen single siRNA	-1	-0.405	-1.6	-1.6	inactive
